Measured data: PubChem BioAssay AID1259254 (NCATS, 2017)
Aim: 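Finding genes that stop cells copying their DNA twice in one cycle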 (primary screen). System: human HCT116 colorectal cancer cells. Reagents: single siRNA against human genes. Timing: 3 days. Read-out: 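Nuclei stained with Hoechst and imaged; cell-cycle phase assigned by DNA content; G2 share scaled per plate, non-targeting siRNA 0%, GMNN siRNA 100%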. Direction: G2 robust z-score: higher = more G2 cells, more excess DNA replication. Hit rule: 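Active siRNAs have a G2 robust z of 5 or more median absolute deviations over the median, which in these data means about 38% or higher of GMNN control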.
Here is an unselected part of about 59,000 deposited reagents. Of all reagents, about 1,550 (2.6%) got an active call. 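G2 share is only a proxy for re-replication; each gene was hit by three separate siRNAs, and active genes were retested.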 Unmarked entries are inactive. The numbers tell different reagents against one gene apart. Further read-outs or replicates are left out here. Not stated in the record: the amount of reagent.

For AMZ2 #1 the deposit lists G2 robust z-score -0.217. Against AMZ2 #2, the values are G2 robust z-score 1.73. Against AMZ2 #3, the values are G2 robust z-score -0.157. FLACC1 #1 gave G2 robust z-score 1. Against FLACC1 #2, the entry reads G2 robust z-score 0.397. With knock-down of FLACC1 #3, the screen gave G2 robust z-score -0.165.

Depletion of ACBD3 #1 gave: G2 robust z-score 1.65. ACBD3 #2 showed G2 robust z-score 0.542. With knock-down of ACBD3 #3, the screen gave G2 robust z-score 0.0665. Against ANKRD30BP3 #1 the deposit lists G2 robust z-score -0.345. With knock-down of ANKRD30BP3 #2 the results were G2 robust z-score 0.335. For ANKRD30BP3 #3 the deposit lists G2 robust z-score -0.508.

Taken from above.
Value for AMZ2 #2 in “G2 robust z-score”: 1.73
For “G2 robust z-score”, AMZ2 #3 is entered as -0.157
